{"source": "patent US7037534B2", "about": "(priority 2001, dated 2006)", "origin": "cited, not measured here", "key": {"[1]": {"tested_on": "HIV and other retroviruses", "settings": "cited from earlier work"}, "[2]": {"tested_on": "HIV and hepatitis C", "settings": "pilot studies; cited from earlier work"}}, "note": "At least one compound was matched to its structure with a doubt left."}
{"smiles": "Cc1cc(O)c2c(=O)c3c(O)cc(O)c4c5c(O)cc(O)c6c(=O)c7c(O)cc(C)c8c1c2c(c34)c(c78)c65", "note": "[hypericin]", "values": [{"measurement": "inactivation of the exposed virus", "setting": "[1]; relatively short light exposure times during routine tissue culture infection procedures", "result": "> 90", "unit": "%"}, {"measurement": "virucidal effects", "setting": "[1]; virus treated with hypericin in complete darkness", "result": "minimal, if at all detectable"}, {"measurement": "benefits for HIV and hepatitis C-infected individuals", "setting": "[2]", "result": "negative results"}]}
